## Primary screen of a compound library

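Viability assay of Plasmodium falciparum sporozoites; the read-out is not stated. The concentration is filed as 10 mM, unlikely as a test dose, so the dose is not known. The record gives no direction; compounds that gave an IC50 in retests scored well above the rest, so higher reads as lower viability. Strong results were mostly tested again. Size under these conditions: about 34,000 compounds, about 280 of them at 50% or above in at least one test.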

Values are the deposited “Percent Effect”, in %. How 0% and 100% were set is not recorded. Most values in the screen are low, and negative values occur. This is an unselected part of the compounds tested. Two or more numbers in one place are separate tests of the same structure; such repeats can differ widely.

structure,percent effect
Cc1ccc(CC(=O)N(C)CC2(O)CCN(c3ccccn3)C2)s1 (stereo not drawn),-15.28
[H][C@@]12CCN(Cc3ccoc3)C[C@]1([H])OCCN(c1cccnc1)C2=O,1.684
O=C(NCCN1CCOC1=O)c1ccc2sccc2c1,-13.5
Cc1cc(-c2cnn(CCNC(=O)c3cnn(C)c3)c2C2CC2)on1,7.861
[H][C@@]12OCCN(Cc3cccc(F)c3)[C@@]1([H])CC[C@@H]2OCc1ccccn1,-17.34
COc1ccc(S(=O)(=O)NC(=O)c2c(C)noc2C(C)C)cc1C,-11.18
Cc1ccsc1C(=O)N1CCCC(c2[nH]ncc2S(C)(=O)=O)C1 (stereo not drawn),7.364
O=C(NCC1CCSCC1)N(CCCO)C1CCc2ccccc21 (stereo not drawn),-8.578
O=C(O)C(F)(F)F.[H][C@]12CCC(=O)N(CC3CCOCC3)[C@@]1([H])CCN2Cc1c(C)noc1C,4.333
Cc1cnn(CC2CN(Cc3nc4cccnc4[nH]3)CCO2)c1 (stereo not drawn),-0.102
COc1ncc(C2(O)CCN(Cc3cc(F)cc(F)c3)CC2)c(OC)n1,-3.18
CCOc1cc(C(=O)N2CCCC(c3noc(CC)n3)C2)ccn1 (stereo not drawn),13.5 & -19.08 & -6.422
COCCN1CCCCC12CC(=O)N(c1ccccc1OC)C2.O=C(O)C(F)(F)F (stereo not drawn),11.73
O=C(C1CCOCC1)N1CC[C@@H](O)[C@@H]1Cc1ccccc1,-0.722
Cc1nc(C2CCCN(C(=O)c3ccc(N4CCCC4)nn3)C2)no1 (stereo not drawn),10.04
CN(CC(=O)Nc1cc(C(F)(F)F)c[nH]c1=O)Cc1ccccc1,4.55
C[C@H](NC(=O)C1CCCC1)c1nc2cc(-c3ccc(F)cc3)ncn2n1,-11.89
Cl.O=C(Nc1cc(C(F)(F)F)c[nH]c1=O)C1CCCCN1 (stereo not drawn),-12.91
O=C(O)C(F)(F)F.[H][C@@]12CCN(C(=O)c3cscn3)[C@@]1([H])CCN2C1CCOCC1,6.759
CC(C)(C)C(=O)NS(=O)(=O)c1ccc(C#N)cc1C(F)(F)F,-3.52
Cc1ccc(S(=O)(=O)NC(=O)CCC2CCCO2)cc1 (stereo not drawn),-3.091
O=C(CCNC(=O)c1cccc(OC(F)F)c1)Nc1cccnc1,16.03
CCN1CCN(C(=O)c2cnc3c(cnn3C3CCCC3)c2)CC1,-0.9457
CC(C)CN1CCC2(CCN(Cc3ccoc3)CC2)C1=O,22.33
[H][C@@]12CCN(Cc3ccoc3)C[C@]1([H])O[C@H](C(=O)NCC1CC1)C2,2.361
O=C(NCCC1CC1)NCc1cccc(-n2ccnc2)c1,-11.72
Cl.Cl.O=C(NCc1cncc2c1CCN(C1CCOCC1)C2)c1ccco1,8.99
[H][C@]12CCN(C(=O)C3CC3)[C@@]1([H])CC[C@@H](COCc1csc(C)n1)O2,18.69
Cc1nc(-c2ccnn2C)cc(C2CCCN(S(C)(=O)=O)C2)n1 (stereo not drawn),8.277
CCc1ncnc2c1CCN(C(=O)c1cccn1C)CC2,14.32
Cc1c(C(=O)NCCC(=O)N2CCOCC2)oc2c(C)cccc12,-3.226
CNS(=O)(=O)c1cc(C(=O)N(C)Cc2sccc2C)c(C)o1,-2.997
CN1CCC(CCNC(=O)c2ccc(N(C)S(C)(=O)=O)cc2Cl)CC1,-11.12
c1ccc(OCC2CC2)c(CNC2CCc3ncnn3C2)c1 (stereo not drawn),9.866
CC(NCc1nnc2n1CCCC2)C(=O)N1CCc2sccc2C1 (stereo not drawn),6.82
CC(C)N1CCC(c2nnc(CN3CCCC3)n2C2CC2)CC1,0.1183
CCCC1CN(CCOC)C(=O)c2cccnc2O1 (stereo not drawn),-41.96
CN(C)CCNC(=O)C1Cc2nc(-c3ccccc3)sc2N1CC1CC1.O=C(O)C(F)(F)F (stereo not drawn),63.41 & 51.04 & 49.77
C=C(C)CN1CCC(NC(=O)Nc2ccc(F)c(C(=O)NC)c2)CC1,-22.29
Cc1cc(C)c(C(=O)N2CCC3(CCCN(CC(C)(C)C)C3)C2)[nH]1 (stereo not drawn),-3.375
O=C(O)C(F)(F)F.[H][C@]12CCC[C@@]1(COCc1ccncc1)CN(C(=O)CS(C)(=O)=O)C2,7.426
Nc1cc(-c2cccs2)nn(CC(=O)NCC2CCCCC2)c1=O,-6.9
Cc1cc(OCC(=O)N2CCCC2c2noc(C)n2)no1 (stereo not drawn),10.91
CN(C1CCN(c2ccccn2)CC1)S(=O)(=O)c1cccs1,-15.09
CCN(c1cc(C)cc(C)c1)S(=O)(=O)c1cc(C(=O)O)cs1,3.015
Cn1ncc2c1C(COCC1CC1)CN(Cc1ccco1)C2 (stereo not drawn),5.556
O=c1c(-c2ccnc(NC3CCCCC3)n2)cnc2sc(Cl)cn12,5.165
CC(NCC(=O)Nc1ccc(N2CCCCCC2)cc1)c1cccs1 (stereo not drawn),14.32
Cc1nc(C2CCCN(C(=O)c3ccc(Cn4cccn4)o3)C2)no1 (stereo not drawn),8.667
CN1CCC(C(=O)N2CCC(c3ccc4c(N)n[nH]c4n3)CC2)CC1,-3.8
CCc1cc(NCCNc2cccnc2)n2nccc2n1,-2.706
CC(C)NC(=O)Nc1ncc(-c2cccnc2)s1,-3.746
Cc1ncsc1C(=O)N(C)CCc1ccncc1,1.649
COc1ccc2c(ccn2CC(=O)Nc2n[nH]c(CC(C)C)n2)c1,-7.784
CCc1cnc2c(c1NCc1cccc(OC)c1)c(=O)n(C)c(=O)n2C,9.944
c1cnn(C2CN(Cc3nc(-c4ccsc4)no3)C2)c1,-36.73 & -38.59 & 16.49
Cc1cnc(N2CCCC3(CCN(Cc4csc(C)n4)C3=O)C2)nc1.O=C(O)C(F)(F)F.O=C(O)C(F)(F)F (stereo not drawn),1.623
COc1cccc(CNC(CN2CCN(C)CC2)c2ccccc2)c1 (stereo not drawn),-3.23
Cn1ccnc1C(NCc1csc(Br)c1)c1ccccc1 (stereo not drawn),1.754
Cc1ccc(C(=O)N2CCCC(c3[nH]ncc3S(C)(=O)=O)C2)s1 (stereo not drawn),11.05
COCc1nc(C(=O)NS(=O)(=O)c2ccc(F)cc2F)cs1,-3.484
CN(C(=O)c1ccccc1Cl)C1CCN(c2ccccn2)CC1,-12.49
Cc1noc(C)c1CN(C)Cn1nccc1-c1cccnc1,4.338
Cc1ccsc1CNC1CCCN(Cc2noc(C3CC3)n2)C1 (stereo not drawn),8.739
CCN(CC)c1nc2ccsc2c(=O)n1CCC(=O)NCc1ccco1,0.4541
CC(=O)N1CCN([C@@H]2CN(C(=O)c3ccccc3C)C[C@H]2O)CC1,3.185
COc1ccc(Br)cc1CN(C)c1nc2c(cnn2C)c(=O)[nH]1,-4.571
CN(C)c1cc(CNC(=O)Nc2nccs2)ccn1,-7.36
COc1ccc(-c2cn([C@H](CO)CC(C)C)nn2)cn1,-26.31
Cc1cc(S(=O)(=O)N(CC(N)=O)CC(C)C)ccc1Br,-5.606
CNC(=O)c1cn[nH]c1C1CCCN1C(=O)c1cccnc1 (stereo not drawn),6.523

9 of the entries, repeated:

| structure | percent effect |
|---|---|
| `CC(C)CN1CCC2(CCN(Cc3ccoc3)CC2)C1=O` | 22.33 |
| `CCN1CCN(C(=O)c2cnc3c(cnn3C3CCCC3)c2)CC1` | -0.9457 |
| `Cc1ccsc1C(=O)N1CCCC(c2[nH]ncc2S(C)(=O)=O)C1` (stereo not drawn) | 7.364 |
| `Cc1ccc(S(=O)(=O)NC(=O)CCC2CCCO2)cc1` (stereo not drawn) | -3.091 |
| `Cc1cc(OCC(=O)N2CCCC2c2noc(C)n2)no1` (stereo not drawn) | 10.91 |
| `[H][C@@]12OCCN(Cc3cccc(F)c3)[C@@]1([H])CC[C@@H]2OCc1ccccn1` | -17.34 |
| `COc1cccc(CNC(CN2CCN(C)CC2)c2ccccc2)c1` (stereo not drawn) | -3.23 |
| `Cc1c(C(=O)NCCC(=O)N2CCOCC2)oc2c(C)cccc12` | -3.226 |
| `Cn1ncc2c1C(COCC1CC1)CN(Cc1ccco1)C2` (stereo not drawn) | 5.556 |

Data taken from ChEMBL document CHEMBL3988442, “University of Dundee, Small-Polar-MMV Screening Library” (2021).